Percent effect of library compounds

The values are deposited in ChEMBL (CHEMBL3988442, “University of Dundee, Small-Polar-MMV Screening Library” (2021)).

T. brucei: 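Whole-parasite assay of Trypanosoma brucei over 72 hours; the read-out is not stated. Compounds at 30 µM. Direction is inferred from retests: higher values go with stronger inhibition. Values scatter widely below zero; nearly all retest evidence comes from the higher of the two concentrations used. About 64,000 compounds were tested under these conditions; 1.5% (about 940) showed 50% or more at least once.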
Toxoplasma: 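Assay of Toxoplasma gondii numbers, read through their beta-galactosidase reporter with a colour substrate. Compounds at 10 µM. Higher reads as fewer parasites (inferred from which compounds were picked for retests). Of about 67,000 compounds tested this way, about 260 (0.38%) reached 50% or more in at least one test.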
Leishmania in macrophages: 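Cell assay of Leishmania donovani living inside macrophages; the read-out is not stated. Concentration: 30 µM. Direction is inferred from retests: higher values go with stronger inhibition. Size under these conditions: about 69,000 compounds, about 1,000 of them at 50% or above in at least one test.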

Each number is a percent effect as filed. The controls that fix the scale are not given in the record; negative values are as filed. This is an unselected part of the compounds tested. Two or more numbers in one place are separate tests of the same structure; such repeats can differ widely. A dash means the value is not listed here; it may have been measured.

{"structure": "O=C1NC2(CCN(Cc3ccccc3Cl)CC2)CC1c1ccccc1", "stereo": "stereo not shown", "Toxoplasma": -0.8506, "Leishmania in macrophages": 21.08}
{"structure": "Cc1csc(-c2ccc(NC(=O)N3CCOCC3)cc2)n1", "T. brucei": 11.54, "Toxoplasma": -2.022, "Leishmania in macrophages": -0.9004}
{"structure": "CC(C)CNC(=O)C1=NOC2(CCN(Cc3cccc(C#N)c3)C2)C1", "stereo": "stereo not shown", "T. brucei": -45.94, "Toxoplasma": 7.468, "Leishmania in macrophages": 21.41}
{"structure": "CCc1nnc2n1CCN(C(=O)COCCc1ccccc1)C2", "T. brucei": 19.5, "Toxoplasma": -2.448, "Leishmania in macrophages": 5.478}
{"structure": "O=C1CC(c2ccccc2)c2cnn(C3CCCC3)c2N1", "stereo": "stereo not shown", "T. brucei": -11.69, "Leishmania in macrophages": 11.87}
{"structure": "CC(O)CN1CCN(C(=O)c2ccc(N(C)C)nc2)CC1", "stereo": "stereo not shown", "T. brucei": -7.215, "Toxoplasma": -0.2118, "Leishmania in macrophages": 21.97}
{"structure": "O=C(O)C(F)(F)F.[H][C@@]12CN(C)CCO[C@]1([H])CN(C(=O)COc1ccc(C)cc1)C2", "T. brucei": -56.97, "Toxoplasma": -1.456, "Leishmania in macrophages": 5.787}
{"structure": "CC(C)c1nnc2n1CCN(C(=O)c1ccc(S(C)(=O)=O)cc1)C2", "T. brucei": 22.01, "Toxoplasma": 4.401, "Leishmania in macrophages": 24.02}
{"structure": "O=C(N1CCC(Oc2ccncc2)CC1)C1(c2ccc(F)cc2)CC1", "T. brucei": -15, "Toxoplasma": 4.461, "Leishmania in macrophages": -93.89}
{"structure": "CCS(=O)(=O)N1CCCCC1c1nc(C(C)C)no1", "stereo": "stereo not shown", "T. brucei": -25.39, "Toxoplasma": -21.51, "Leishmania in macrophages": 16.57}
{"structure": "CCc1n[nH]c(C(=O)NCCn2ccnc2C)c1C", "T. brucei": -41.63, "Toxoplasma": 18.84, "Leishmania in macrophages": -0.5521}
{"structure": "Cc1cc(N2CCN(Cc3ccc(C)o3)CC2)cc(C)n1", "T. brucei": 28.19, "Toxoplasma": -1.322, "Leishmania in macrophages": 44.04}
{"structure": "CC(C)C(C)NC(=O)Nc1cccc(OCC#N)c1", "stereo": "stereo not shown", "T. brucei": -28.58, "Toxoplasma": 8.835, "Leishmania in macrophages": -0.712}
{"structure": "CC(=O)N1CCCCC1c1nnc2n1CCNC2", "stereo": "stereo not shown", "Toxoplasma": -8.273, "Leishmania in macrophages": 6.052}
{"structure": "CCOc1ncccc1CNS(=O)(=O)N1CCOCC1", "T. brucei": -21.75, "Toxoplasma": -3.229, "Leishmania in macrophages": 13.13}
{"structure": "Cn1ncnc1NS(=O)(=O)c1ccccc1", "T. brucei": 6.146, "Toxoplasma": 7.945, "Leishmania in macrophages": 17.46}
{"structure": "COCC(NC(=O)c1ccoc1)c1ccc(C)o1", "stereo": "stereo not shown", "T. brucei": -6.966, "Toxoplasma": 16.04, "Leishmania in macrophages": 12.19}
{"structure": "Cn1nccc1C1CCN(CC(=O)NCC2CC2)CC1", "Toxoplasma": -7.989, "Leishmania in macrophages": 5.336}
{"structure": "Cc1cc(Cl)c(C)c(S(=O)(=O)N2CCN(Cc3ccncc3)CC2)c1Cl", "T. brucei": -52.63, "Toxoplasma": 1.67, "Leishmania in macrophages": -28.32}
{"structure": "CCN(CCN1CCOCC1)C(=O)c1cccnc1", "T. brucei": 3.268, "Toxoplasma": -4.184, "Leishmania in macrophages": 19.36}
{"structure": "Cc1cnn(CC2CCCCN2Cc2ncc(C(C)(C)C)o2)c1", "stereo": "stereo not shown", "T. brucei": -9.857, "Toxoplasma": -5.022, "Leishmania in macrophages": 3.884}
{"structure": "O=C1CSC(c2ccc(F)c(Cl)c2)c2c(n(C3CCOCC3)[nH]c2=O)N1", "stereo": "stereo not shown", "T. brucei": -9.275, "Toxoplasma": 10.36, "Leishmania in macrophages": -21.97}
{"structure": "CS(=O)(=O)N1CCC2(CC1)CN(CC1CCOC1)c1ccccc12.O=C(O)C(F)(F)F", "stereo": "stereo not shown", "T. brucei": 18.78, "Toxoplasma": -21.99, "Leishmania in macrophages": 22.67}
{"structure": "Cc1nccn1CCC1CCNCC1.Cl.Cl", "T. brucei": -19.74, "Toxoplasma": 3.967, "Leishmania in macrophages": 12.61}
{"structure": "CCOc1ccc(C(=O)N(CCOC)Cc2c(C)nn(CC)c2C)o1", "T. brucei": 2.516, "Toxoplasma": -6.633, "Leishmania in macrophages": 43.08}
{"structure": "NCc1ccnc(Oc2ccc(F)cc2)c1", "T. brucei": -24.88, "Toxoplasma": -4.197, "Leishmania in macrophages": 18.89}
{"structure": "O=C(CN1CCOC(c2ccc(Cl)c(Cl)c2)C1)NCc1ccco1", "stereo": "stereo not shown", "T. brucei": -16.14, "Leishmania in macrophages": 3.845}
{"structure": "O=C1NCC2(CCCN(C(=O)Nc3ccc4scnc4c3)CC2)O1", "stereo": "stereo not shown", "T. brucei": -88.36, "Toxoplasma": 1.082, "Leishmania in macrophages": 28.15}
{"structure": "CC[C@@H]1N(CC2CC2)CCC[C@]12CCC(=O)N2.O=C(O)C(F)(F)F", "T. brucei": -76.44, "Toxoplasma": 5.232, "Leishmania in macrophages": 23.03}
{"structure": "O=C(O)C(F)(F)F.O=C(O)C(F)(F)F.O=C(O)C(F)(F)F.O=C(O)c1cc2c(nc1-c1ccncc1)CCN(C1CCOC1)CC2", "stereo": "stereo not shown", "T. brucei": -57.64, "Toxoplasma": -5.982, "Leishmania in macrophages": "0.4033 and 8.874"}

2 of the entries, repeated:

| structure | T. brucei | Toxoplasma | Leishmania in macrophages |
|---|---|---|---|
| `O=C(O)C(F)(F)F.O=C(O)C(F)(F)F.O=C(O)C(F)(F)F.O=C(O)c1cc2c(nc1-c1ccncc1)CCN(C1CCOC1)CC2` (stereo not shown) | -57.64 | -5.982 | 0.4033 and 8.874 |
| `O=C1CC(c2ccccc2)c2cnn(C3CCCC3)c2N1` (stereo not shown) | -11.69 | - | 11.87 |